Source: patent US20080166698A1 (Genentech, published 2008)
No constants are given. Whether binding was seen depends on the method and setting. Some entries that bind do so weakly or less than the wild type.

Assays:
recombinant human DAF [1] = target: T1, recombinant human DAF (human, UniProt P08174 35-353, limits assumed); assay: flow cytometry on 1264 cells, soluble recombinant human DAF as competitor
T1 construct: also called decay accelerating factor; CD55
T1 sequence (looked up): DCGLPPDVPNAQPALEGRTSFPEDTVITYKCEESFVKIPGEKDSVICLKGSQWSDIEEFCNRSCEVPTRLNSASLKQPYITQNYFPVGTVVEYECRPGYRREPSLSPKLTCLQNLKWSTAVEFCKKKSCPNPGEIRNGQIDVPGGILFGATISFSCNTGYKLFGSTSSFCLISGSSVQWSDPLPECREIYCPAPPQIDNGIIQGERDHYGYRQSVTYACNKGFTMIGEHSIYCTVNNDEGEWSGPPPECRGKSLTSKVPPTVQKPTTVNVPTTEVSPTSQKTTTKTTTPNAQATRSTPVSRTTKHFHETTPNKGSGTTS

recombinant human DAF [2] = target: T1, recombinant human DAF; assay: competition in flow cytometry: LU30 scFv 3 µg/ml on 1264 cells, competitor recombinant human DAF 30 µg/ml (single concentration)
[3] = target: DAF (immunoaffinity purified with LU20 or LU13, detected by western blot) (UniProt P08174); assay: immunoaffinity purification followed by western blotting with anti-DAF antibody IA10
[4] = target: decay accelerating factor (DAF, CD55) on cells (UniProt P08174); assay: flow cytometry with scFv fragment 3 µg/ml on live cells (1264, A549, CALU6, SKLU1, BEAS-2B, NHEK), detected with anti-hexahistidine antibody and FITC anti-mouse F(ab')2; the filing names DAF as the antigen of LU13 by immunoaffinity purification and western blot
[5] = target: decay accelerating factor (DAF, CD55) on cells (UniProt P08174); assay: flow cytometry with scFv fragment 3 µg/ml on live cells (1264, A549, CALU6, SKLU1, BEAS-2B, NHEK), detected with anti-hexahistidine antibody and FITC anti-mouse F(ab')2; the filing names DAF as the antigen of LU20 by immunoaffinity purification and western blot

B1: LU30 scFv (scFv, V domains shown)
VH: QVKLQESGGGLVQPGGSLKLSCAASGFTFSGYGMSWIRQTPDKRLEWVATINSGGSYTYYSDSVKGRFTISRDNVKNTLYLQMSSLKSEDTAMYYCARRNGTLYYYLMDYWGRGTLVTVSS
VL: QSVLTQPPSASGSPGQSVTISCTGTSSDVGGYNYVSWYQQHPGKAPKFMIYDVSKRPSGVSNRFSGSKSGNTASLTISGVQAEDEADYYCSSYTSASTVIFGGGTKLTVL
notes: Human scFv from a naive phage library, secreted from E. coli and purified through its His tag; also called clone LU30; LU30 scFv fragment; not shown: scFv linker between the domains, domain order, and the His tag
Question: What does the source list for B1?
Answer: binding (recombinant human DAF [1]): binds; binding (recombinant human DAF [2]): binds

B2: LU13 scFv (scFv, V domains shown, not shown: small tags and cut ends)
VH: QVQLQESGGNLVQPGGSLRLSCAASGFTFSSYAMSWVRQAPGKGLEWVSAISGSGGNTYYADSVKGRFTISRDNSKNTLYLQMNTLRAEDTAVYYCARRASYDYWGQGTMVTVSS
VL: QSVLTQPASVSGSPGQSITVSCTGTSSDVGGYNYVSWYQQHPGKAPKLMIYEGSKRPSGVSNRFSGSKSGNTASLTISGLQAEDEADYYCSSYTTRSTRVFGGGTKLTVL
Question: What does the source list for B2?
Answer: binding [3]: binds; binding [4]: binds

B3: LU20 scFv (scFv, V domains shown, not shown: small tags and cut ends)
VH: EVQLVETGGGLVQPGRSLRLSCAASGFTFEDYGMHWVRQAPGKGLEWVSGINWNGGSTGYADSVKGRFTISRDNAKNSLYLQMNSLRAEDTALYYCARDAPSGSYGYWFDPWGQGTLVTVSS
VL: DIQMTQSPSTLSASIGDRVTITCRASEGIYHWLAWYQQKPGKAPKLLIYKASSLASGAPSRFSGSGSGTDFTLTISSLQPDDFATYYCQQYSNYPLTFGGGTKLEIK
Question: What does the source list for B3?
Answer: binding [3]: binds; binding [5]: binds
